Experimental findings from PubChem BioAssay AID2685 (National Center for Advancing Translational Sciences (NCATS), 2010) are described below.

The nature of the experiment: qHTS Assay for Lipid Storage Modulators in Drosophila S3 Cells.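 As to cell number change: cells counted by Cell Tracker Red CMTPX staining in the red channel.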 The settings on record: BODIPY lipid droplet fluorescence, 18-24 h; for cell number change: measured here: cell count max response, cells fed with added oleic acid. In outline:
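Drosophila S3 cells got compounds at several concentrations plus oleic acid (400 uM solution). Laser-scanning cytometry with 488 nm excitation read lipid droplets at 500-530 nm and cells at 575-640 nm. Percent activity was relative to 20 uM Triacsin C.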
For orientation: In qHTS, concentration-response curves come from the screen itself.

Setting [1] is: measured here: cell number channel AC50, cells fed with added oleic acid.
[2] abbreviates: measured here: lipid fluorescence (Fed channel) AC50, cells fed with added oleic acid.

Molecules are shown by their SMILES. This is one part of the list. Further columns of the screen follow, without active or inactive calls. The list favours compounds with an active or inconclusive main result. Words in brackets tell the shape of the fitted curve; partial curves, single points and poor fits give uncertain potencies.

What is called AC50 is the concentration at which the activity in the assay is half-maximal. The low end stands for activity at low concentration, the high end for activity only at high concentration. On to `Cc1ccc(C(C)C)c(OCCN(C)C)c1`, for which the cell number change amounted to 44.6%. Besides, the AC50 under setting [1] was 29.1 µM [rising, single point].

With `O=C(COc1ccccc1)NCC1(N2CCCCC2)CCCCC1`, the cell number change is -76.7%. The AC50 under setting [1] was 2.06 µM [falling, partial curve]. Besides, the AC50 under setting [2] is 2.06 µM [falling, partial curve]. In the case of `CNS(=O)(=O)c1cccc(C(=O)OCC(=O)Nc2ccc(-c3nc4ccc(C)cc4s3)cc2)c1`, the cell number change came out at 20.1%.

On to `CCN(CC)S(=O)(=O)c1ccc2[nH]cc(C(=O)NCCN3CCCCCC3)c(=O)c2c1`, for which the cell number change was -23.4%. Further, under setting [2], the AC50 is 2.91 µM [rising, full curve]. For the molecule `Cc1cc(C)nc(Nc2n[nH]c(COc3ccc4ccccc4c3)n2)n1`, the cell number change is -7.82%. For the same molecule, under setting [1], the AC50 was 1.84 µM [rising, partial curve]. Besides, under setting [2], the AC50 was 1.64 µM [rising, partial curve]. In the case of `Cc1occc1-c1nnc(SCC(=O)Nc2ccc(F)cc2)n1C`, the cell number change is -30.8%. The AC50 under setting [2] is 10.3 µM [falling, partial curve]. As to `O=S(=O)(NCCN1CCOCC1)c1ccc(F)c(Cl)c1`, the cell number change amounted to 25.2%.

For the molecule `Cc1cccc2sc(NC(=O)c3cc(S(=O)(=O)N(C)C)ccc3N3CCCC3)nc12`, the cell number change came to 13.5%. Consider `COc1ccc(CC(=O)NNC(=O)c2cccnc2)cc1OC`, for which the cell number change is -24.8%. For the same molecule, under setting [1], the half-maximal activity concentration (AC50) is 2.59 µM [falling, single point]. Also, the AC50 under setting [2] was 6.51 µM [falling, single point]. In the case of `N#CCSc1nnc(COc2ccc3ccccc3c2)o1`, the cell number change was found to be 86.9%. Moreover, under setting [1], the half-maximal activity concentration (AC50) was 16.4 µM [rising, partial curve]. Besides, the AC50 under setting [2] was 16.4 µM [rising, partial curve].

For `Cc1sc2cc3c(c(C(=O)c4ccccc4)[n+]2c1C)-c1cccc2cccc-3c12`, the cell number change was -59.8%. Moreover, the AC50 under setting [1] was 11.6 µM [falling, partial curve]. Further, the AC50 under setting [2] was 2.31 µM [falling, full curve]. On to `O=C(CCn1c(=O)c2cccn2c2cccnc21)NCc1cccc(Cl)c1`, for which the cell number change is -21.1%. Further, the AC50 under setting [2] is 1.64 µM [falling, partial curve]. Regarding `Cc1ccc(S(=O)(=O)N2CCOCC2)cc1-c1n[nH]c(=S)n1-c1ccccc1`, the cell number change is -6.25%. For the same molecule, the AC50 under setting [2] was 0.0731 µM [falling, partial curve, poor fit]. Regarding `Cc1c(N=Nc2c(-c3ccc([N+](=O)[O-])cc3)[nH]n(C(N)=S)c2=O)cccc1[N+](=O)[O-]`, the cell number change came out at 22.5%. Under setting [2], the AC50 is 4.61 µM [falling, partial curve]. As for `Cc1ccc(NC(=O)c2nnn(CC(=O)Nc3ccc4c(c3)OCO4)c2N)cc1C`, the cell number change was 13.1%. As for `Cc1cc(Cl)ccc1OCCCC(=O)N/N=C/c1cccc([N+](=O)[O-])c1`, the cell number change was 39.3%. Further, the concentration at half-maximal activity (AC50) under setting [1] is 10.3 µM [rising, partial curve]. For the same molecule, the AC50 under setting [2] was 5.8 µM [rising, partial curve]. Consider `Cc1ccc(N(CC(=O)NC2CC2)S(=O)(=O)c2ccccc2)c(C)c1`, for which the cell number change is -11.4%. Under setting [2], the AC50 is 0.0651 µM [rising, full curve, poor fit]. With `CN(C)S(=O)(=O)c1ccc(S(=O)(=O)Nc2ccc3c(c2)oc2ccccc23)cc1`, under setting [2], the concentration at half-maximal activity (AC50) was 0.82 µM [rising, full curve]. As for `O=C(COC(=O)c1cccnc1Cl)Nc1ncc(Cl)cc1Cl`, the cell number change worked out at 20.6%. In addition, the AC50 under setting [2] is 2.31 µM [rising, full curve, poor fit]. `CC(=O)C1=C(C)Nc2cc(C(F)(F)F)ccc2S1`: the cell number change is -6.35%. Moreover, the AC50 under setting [2] is 0.13 µM [falling, full curve, poor fit].

Take `COc1ccc(NC(=O)C(=O)NCCC2CCCCN2S(=O)(=O)c2ccccc2)cc1` (stereo not given): the cell number change turned out to be 0.9%. The AC50 under setting [2] is 23.1 µM [falling, single point]. Regarding `CC(C)/C=C1\CCCCC1N(C)C(=O)NC(C)C` (stereo not given), the cell number change was -10.8%. Also, the AC50 under setting [1] was 0.461 µM [rising, single point]. On to `O=C1N=C(c2ccccc2)S/C1=C\c1cccs1`, for which the AC50 is, setting by setting: under setting [1], 2.59 µM [rising, single point]; under setting [2], 6.51 µM [rising, single point]. As for `O=C(O)c1cc(-c2ccc(/C=C3\NC(=O)N(c4ccc(Cl)cc4)C3=O)o2)ccc1Cl`, the cell number change is -49.6%. Moreover, the AC50 under setting [1] was 29.1 µM [falling, single point]. Further, the AC50 under setting [2] is 32.6 µM [falling, partial curve, poor fit]. On to `COc1ccc(/C=C2\Sc3ccc(C(=O)NC4CC4)cc3N(C)C2=O)cc1OC`, for which the AC50 by setting is: under setting [1], 4.11 µM [falling, single point]; under setting [2], 4.11 µM [falling, partial curve].

As to `CCOCc1c(C(=O)OCC(=O)NCc2ccc(F)cc2)oc2ccccc12`, the cell number change was -40.6%. Under setting [1], the AC50 is 0.0058 µM [falling, full curve, poor fit]. In the case of `CC(C)(C)c1ccc(C(=O)N2CCNC(=O)C2CC(=O)Nc2ccc(F)cc2)cc1` (stereo not given), the cell number change came out at 11.8%. Besides, the AC50 under setting [2] was 0.731 µM [rising, single point]. Turning to `O=C(CN1C(=O)NC2(CCCC2)C1=O)NCCN1C(=O)S/C(=C\c2ccccc2F)C1=O`, the cell number change turned out to be 91%. In addition, the AC50 under setting [1] is 0.00517 µM [rising, full curve, poor fit]. `c1ccc2nc3[nH]cnc3nc2c1`: the cell number change is 2.09%. As to `CCOc1ccccc1N(CC(=O)N1CCOCC1)S(=O)(=O)c1ccc(SC)cc1`, the cell number change is -90%. Besides, the AC50 under setting [1] was 23.1 µM [falling, partial curve]. For the molecule `Oc1cccc2ccc(/C=C/c3ccccc3Cl)nc12`, the cell number change came to 62.4%. In addition, the AC50 under setting [1] was 0.58 µM [falling, single point]. For `CC1CCN(Cc2c(C(=O)N3CCc4ccccc4C3)nc3ccc(Cl)cn23)CC1`, the cell number change is 35.4%. The half-maximal activity concentration (AC50) under setting [1] is 29.1 µM [rising, single point]. For the molecule `CCCSc1nsc(NC(=O)Nc2ccc(F)cc2F)n1`, the cell number change was -31.5%. Further, under setting [1], the half-maximal activity concentration (AC50) is 8.2 µM [falling, partial curve, poor fit]. Also, the AC50 under setting [2] was 5.17 µM [falling, full curve].

For `Cc1ccc(N(C(=O)c2ccc(Br)o2)C2C=CS(=O)(=O)C2)cc1` (stereo not given), the cell number change was -8.98%. Under setting [2], the AC50 is 32.6 µM [rising, partial curve, poor fit]. For the molecule `CCCCNC(=O)OCCSCCS(=O)(=O)c1ccc(Cl)cc1`, the cell number change came to 7.14%. Further, under setting [2], the AC50 is 0.103 µM [falling, full curve, poor fit]. As to `O=C(Nc1cc(C(F)(F)F)ccc1-n1cncn1)C1CC1`, the cell number change is 4.5%. In the case of `Cc1noc(C)c1CS(=O)(=O)c1ccc(Br)cc1`, the cell number change is 22.6%. Further, the half-maximal activity concentration (AC50) under setting [2] was 0.58 µM [rising, single point].

As for `COC(=O)N/N=C\c1ccc(-c2cc(Cl)c(Cl)cc2Cl)o1`, the cell number change was 10.5%. The AC50 under setting [2] was 0.651 µM [rising, full curve]. Consider `CCC(=O)Nc1cccc(-c2nnc(-c3cccc(NC(=O)CC)c3)o2)c1`, for which the cell number change was found to be 11%. Further, the AC50 under setting [1] is 1.3 µM [rising, partial curve]. Also, the concentration at half-maximal activity (AC50) under setting [2] is 1.64 µM [rising, partial curve].

`COc1ccc(S(N)(=O)=O)cc1C(=O)NC1CCCc2ccccc21` (stereo not given): the cell number change is -24.6%. Further, the AC50 under setting [2] was 29.1 µM [rising, single point]. Turning to `CCOc1ccc(CCNC(=O)c2cccc(S(=O)(=O)N3CCOCC3)c2)cc1OCC`, the cell number change amounted to 2.2%. Also, the concentration at half-maximal activity (AC50) under setting [2] was 29.1 µM [falling, single point]. For the molecule `OCCN(Cc1ccccc1)CC1CCCCC1`, the cell number change is -2.92%. Under setting [1], the AC50 is 2.31 µM [rising, single point]. Besides, under setting [2], the AC50 was 2.06 µM [falling, partial curve, poor fit]. Consider `Cc1ccc(C(=O)COC(=O)CCCC(=O)NC2CCCCC2)cc1[N+](=O)[O-]`, for which the cell number change was determined as 6.03%. Consider `CCOC(=O)N1CCC(NC(=O)Cn2nc(Cc3ccncc3)c3ccccc3c2=O)CC1`, for which the cell number change was -41%. In addition, the AC50 under setting [1] is 32.6 µM [falling, partial curve, poor fit]. Besides, under setting [2], the AC50 is 32.6 µM [falling, partial curve]. Regarding `COc1cccc(/C=N/NC(=O)c2cc3c(OC)cccc3[nH]2)c1O`, the AC50 under setting [1] was 6.51 µM [falling, single point].

Take `CCOc1ccc(N(C(=O)c2ccc(S(=O)(=O)N3CCCC3)cc2)C2C=CS(=O)(=O)C2)cc1` (stereo not given): the cell number change is -4.31%.

As to `CN(CC(=O)Oc1ccc(-c2nnco2)cc1)S(=O)(=O)c1ccc(F)cc1`, the cell number change is -4.5%. The AC50 under setting [2] was 0.13 µM [falling, full curve, poor fit]. In the case of `O=C(CSc1nnc(-c2cccnc2)s1)Nc1ccnc2ccccc12`, the cell number change was -52.8%. The AC50 under setting [1] was 3.26 µM [falling, partial curve]. The AC50 under setting [2] is 4.11 µM [falling, partial curve]. Take `COc1cc(NC(=O)c2ccccc2OCc2ccccc2)cc(OC)c1OC`: the cell number change came out at 6.48%. Further, under setting [2], the AC50 is 25.9 µM [falling, single point]. As to `Fc1ccc(CO/N=C2\CCCc3nonc32)cc1`, the cell number change was -59.5%. Under setting [2], the AC50 was 32.6 µM [falling, partial curve, poor fit]. `COC(=O)c1cc(C(=O)NCC2CCCCC2)cc([N+](=O)[O-])c1`: the AC50 under setting [1] was 2.59 µM [rising, single point]. For `COc1ccc(C2=NN(c3ccc(C=O)cc3)C(c3ccccc3)C2)cc1` (stereo not given), the cell number change is 0.901%.

Consider `CN(C(=O)CSc1nc2c(c(=O)[nH]1)CCCC2)C1CCCCC1`, for which the AC50 under setting [1] was 1.3 µM [falling, full curve] and the AC50 under setting [2] is 0.13 µM [falling, full curve, poor fit]. For the molecule `COc1ccc(OC)c(-c2csc(NC(=O)C3=COCCO3)n2)c1`, the AC50 under setting [1] is 1.84 µM [rising, partial curve].

As to `O=C(O)c1cccc(N2CCCC2)c1`, the cell number change is -0.79%. The AC50 under setting [2] is 29.1 µM [falling, partial curve, poor fit]. As for `CC(C)NC(=S)N1CCN(C/C=C/c2ccccc2)CC1`, the AC50 under setting [2] was 0.651 µM [rising, partial curve, poor fit].

On to `Cc1ccc(S(=O)(=O)NCCN2CCOCC2)cc1`, for which the cell number change turned out to be 8.42%. The AC50 under setting [1] is 0.116 µM [rising, full curve, poor fit]. Further, under setting [2], the AC50 is 0.103 µM [rising, partial curve, poor fit]. As to `COc1ccc(NC(C)C(=O)N/N=C/c2ccccc2OCc2cccc(Br)c2)cc1` (stereo not given), the cell number change was -6.69%. In addition, under setting [2], the AC50 is 0.082 µM [rising, full curve, poor fit].
